Results published in PubChem BioAssay AID2685 (National Center for Advancing Translational Sciences (NCATS), 2010).
Among all 320,000 compounds or so, about 2,100 (0.66%) were called active. Inconclusive means that the source gave no clear call. Such entries were picked first, then a sample of the others. Calls follow the shape of the dose curve; as a rule, active = well fitted inhibition curve with a large enough effect in the signal ratio, with a control signal flat (not every such curve was filed as active); inconclusive = small, poorly fitted or top-dose-only effect, or effect the other way, or a change in a side signal; inactive = flat fitted curve, though single readings scatter; the % refers to the signal ratio. Potencies beside an inconclusive call are fits to weak or partial responses and may not hold up.

Test: qHTS Assay for Lipid Storage Modulators in Drosophila S3 Cells
Settings: BODIPY lipid droplet fluorescence, 18-24 h, cells fed with added oleic acid; lipid storage change, negative = inhibition: at 46.1 µM (top of the series) unless noted
Outline: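 Drosophila S3 cells loaded with oleic acid (400 uM, as added) and compounds at several concentrations; lipid droplets imaged by 488-nm laser-scanning cytometry, 500–530 nm intensity and object ratio to cell channel. Percent activity normalized to 20 uM Triacsin C.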
% is scaled to controls: 0 for no effect and ±100 for the full control effect; potency is read from the fitted curve at half-maximal effect.

SMILES | lipid storage change, negative = inhibition | Potency
CCn1c(=O)c2cc(C(=O)N(C)CC(OC)OC)sc2c2ccccc21 | inactive: 2.97% | 
COc1cccc(NC(=O)C(C)NS(=O)(=O)c2ccc(Br)cc2)c1 (configuration not stated) |  | inconclusive: 29.1 µM [activator, single point]
CCCc1nn2c(=O)cc(COc3cccc(NC(=O)c4ccco4)c3)nc2s1 |  | inconclusive: 4.11 µM [falling, single point]
O=C(Nc1ccc(F)cc1)Nc1nnc(Cc2ccccc2)s1 | inconclusive: -21.1% | 
Cc1cc(=O)n2nc(N3CCCC3C(=O)NCCCN3CC(C)CC(C)C3)sc2n1 (configuration not stated) |  | active: 5.17 µM
COc1cc(C(=O)NNC(=S)NCc2ccco2)cc(OC)c1OC | inconclusive: 16.9% | 
CC(=O)c1cccc(NC(=O)C2(c3ccccc3)CC2(Cl)Cl)c1 (configuration not stated) | inconclusive: -44.1% [at 0.369 µM] | 
CCOC(=O)c1cnc2c(Cl)cccc2c1NCCN1CCOCC1 | inconclusive: 72.3% | 
Cc1ccc(NC(=O)c2cccc(NC(=O)/C=C/c3ccco3)c2)cc1C |  | inconclusive: 20.6 µM [falling, single point]
O=S(=O)(c1ccc(Cl)cc1)N1CCN(Cc2cccnc2)CC1 |  | inconclusive: 29.1 µM [activator, single point]
Cc1ccc(N2C(=O)N(CC(=O)Nc3ccccc3C(F)(F)F)C(=O)C2C)cc1 (configuration not stated) | inconclusive: 5.57% | 
Cc1n[nH]c(=O)n1-c1ccc(C(C)C)cc1 | inconclusive: 2.78% | 
CCNC(=O)CN1C(=O)NC2(CCCCCC2)C1=O |  | inconclusive: 32.6 µM [falling, single point]
COCCN=c1scc(C)n1/N=C/C1CC2C=CC1C2 (configuration not stated) |  | inconclusive: 20.6 µM [rising, partial curve, poor fit]
COc1cccc2cc(C(=O)CS(=O)(=O)c3ccc(C(C)(C)C)cc3)c(=O)oc12 | inconclusive: 162% | 
COC(=O)CSc1nnc(SCc2ccccc2)s1 | inconclusive: -39.3% | 
CCOP(=O)(OCC)C(NC(=O)Nc1ccccc1)C(N)=O (configuration not stated) | inconclusive: 16.2% | 
Cc1cc(C)nc(NC(=O)CSc2nc3cc(Cl)ccc3s2)n1 |  | inconclusive: 29.1 µM [activator, single point]
CCOc1ccccc1NC(=O)c1ccccc1NS(C)(=O)=O |  | inconclusive: 2.59 µM [activator, partial curve]
CCOc1ccc(C(=O)Nc2ccccc2N2CCCC2)cc1 | inconclusive: -5.23% | 
CCC(=O)Nc1ccc2oc(-c3cccc(C)c3)nc2c1 |  | inconclusive: 3.26 µM [rising, partial curve]
COC(=O)c1ccc(CNC(=O)C(C)N=C2NS(=O)(=O)c3ccccc32)cc1 (configuration not stated) | inconclusive: -36.9% | 
CC(C)Cn1cnc2c(=O)oc3ccccc3c21 |  | inconclusive: 20.6 µM [rising, partial curve]
CSc1ccc(CN(C)C(=O)c2cc(=O)c3ccccc3o2)cc1 | inconclusive: -53.2% | 
NS(=O)(=O)c1ccc(CCNC(=O)CNS(=O)(=O)c2cccc(Br)c2)cc1 | inconclusive: 78.9% | 
CCc1ccccc1OCc1nnc(N)s1 | inconclusive: 13% | 

SMILES | lipid storage change, negative = inhibition | Potency
CC(C)CCC(C(=O)O)C(C)CC(=O)NC1CCCCC1 (configuration not stated) | inconclusive: -8.77% | 
Cc1ccc(NC2CCCN(C(=O)C3CCCC3)C2)cc1C (configuration not stated) | inconclusive: 13.6% | 
CSc1nc2ccc(NS(=O)(=O)c3ccccc3F)cc2s1 |  | inconclusive: 0.103 µM [falling, full curve, poor fit]
c1ccc(-c2ccccn2)nc1 | inconclusive: 1.69% | 
COc1ccccc1N1C(=NC(=O)COc2ccccc2)SC2CS(=O)(=O)CC21 (configuration not stated) | inconclusive: 253% | 
CC(C)C(=O)N(c1ccc2oc(=O)sc2c1)S(=O)(=O)c1cccs1 | inconclusive: 10.8% | 
N#CCSc1nc(-c2ccccc2)nc2ccc(F)cc12 | inconclusive: -58.1% | 
O=C(NCCNc1ccc(Cl)cc1[N+](=O)[O-])c1cccnc1 | inconclusive: -42.5% [cytotoxic] [at 0.369 µM] | 
O=[N+]([O-])c1cccc(NC(=S)NCCc2ccccc2)c1 |  | inconclusive: 29.1 µM [falling, single point]
CCNc1nc(NC(C)C)nc(OCC)n1 | inconclusive: -9.43% | 
C#CCOc1ccc(C2C3=C(CC(C)(C)CC3=O)N(CC(=O)O)C3=C2C(=O)CC(C)(C)C3)cc1 | inactive: -19.8% | 
COC(=O)c1ccc(C)c(NC(=O)C2CC(=O)N(C3CCCC(C)C3C)C2)c1 (configuration not stated) |  | inconclusive: 18.4 µM [falling, single point]
Cc1ccc(-c2nc3ccccc3s2)cc1NC(=S)NC(=O)c1cccc2ccccc12 |  | inconclusive: 0.651 µM [rising, single point]
Cc1cccc(NC(=O)CCN2C(=O)c3ccccc3C2=O)c1 | inconclusive: -39% | 
COc1cc(OC)c(NS(=O)(=O)c2cccc(C(=O)OCC(=O)NCC3CCCO3)c2)cc1Cl (configuration not stated) | inconclusive: 36.7% | 
CC(=O)Nc1nc2cc(C(N)=O)ccc2s1 | inconclusive: 46.3% | 
Cn1nc(C(=O)NNC(=O)c2ccc(Cl)cc2)ccc1=O | inconclusive: 8.06% | 
O=C(Nc1ccn(Cc2ccccc2F)n1)c1ccc(COc2ccc(Cl)cc2Cl)o1 |  | inconclusive: 29.1 µM [falling, single point]
COc1ccc(CN(C)C(=O)c2ccc(OCC(=O)N3CCOCC3)c(OC)c2)cc1 |  | inconclusive: 29.1 µM [activator, single point]
COc1ccc2c(c1)OC[C@H]1[C@H]2N2C(=O)[C@H](C)NC(=O)[C@@]2(C)[C@H]1c1ccccc1 | inconclusive: -35.3% | 
C=CCn1c(CSc2nc3ccccc3s2)nnc1SCC(=O)NCc1ccccc1 |  | inconclusive: 5.17 µM [cytotoxic, partial curve]
COc1ccc(/C=C/C(=O)Nc2cc(C(F)(F)F)ccc2Cl)cc1OC | inconclusive: -17.5% | 
CCOc1cccc(-c2cc(C(=O)N/N=C/c3ccc(OC)c(CN4CCOCC4)c3)c3ccccc3n2)c1 | inconclusive: 1.13% | 
COc1ccc(NC(=S)NCCc2c[nH]c3ccccc23)cc1 | inconclusive: -8.23% | 
Cc1ccc(S(=O)(=O)N2CCN(CC(=O)N/N=C/c3ccc(Br)s3)CC2)cc1 | inconclusive: -17.1% | 
CCOc1ccc(OCCC(=O)OCC(=O)Nc2ccc(N3CCOCC3)cc2)cc1 |  | inconclusive: 5.8 µM [falling, partial curve]

Ordered by formula weight (smallest number first): part of the list above
SMILES | lipid storage change, negative = inhibition | Potency
CC(C)Cn1cnc2c(=O)oc3ccccc3c21 |  | inconclusive: 20.6 µM [rising, partial curve]
CCNC(=O)CN1C(=O)NC2(CCCCCC2)C1=O |  | inconclusive: 32.6 µM [falling, single point]
CC(C)CCC(C(=O)O)C(C)CC(=O)NC1CCCCC1 (configuration not stated) | inconclusive: -8.77% | 
O=[N+]([O-])c1cccc(NC(=S)NCCc2ccccc2)c1 |  | inconclusive: 29.1 µM [falling, single point]
Cc1cccc(NC(=O)CCN2C(=O)c3ccccc3C2=O)c1 | inconclusive: -39% | 
CCOc1ccc(C(=O)Nc2ccccc2N2CCCC2)cc1 | inconclusive: -5.23% | 
CCOc1ccccc1NC(=O)c1ccccc1NS(C)(=O)=O |  | inconclusive: 2.59 µM [activator, partial curve]
O=S(=O)(c1ccc(Cl)cc1)N1CCN(Cc2cccnc2)CC1 |  | inconclusive: 29.1 µM [activator, single point]
COc1cc(C(=O)NNC(=S)NCc2ccco2)cc(OC)c1OC | inconclusive: 16.9% | 
CCn1c(=O)c2cc(C(=O)N(C)CC(OC)OC)sc2c2ccccc21 | inactive: 2.97% | 
COc1ccc(/C=C/C(=O)Nc2cc(C(F)(F)F)ccc2Cl)cc1OC | inconclusive: -17.5% | 
Cc1ccc(N2C(=O)N(CC(=O)Nc3ccccc3C(F)(F)F)C(=O)C2C)cc1 (configuration not stated) | inconclusive: 5.57% | 
COc1cccc(NC(=O)C(C)NS(=O)(=O)c2ccc(Br)cc2)c1 (configuration not stated) |  | inconclusive: 29.1 µM [activator, single point]
COc1cccc2cc(C(=O)CS(=O)(=O)c3ccc(C(C)(C)C)cc3)c(=O)oc12 | inconclusive: 162% | 
Cc1cc(=O)n2nc(N3CCCC3C(=O)NCCCN3CC(C)CC(C)C3)sc2n1 (configuration not stated) |  | active: 5.17 µM
Cc1ccc(S(=O)(=O)N2CCN(CC(=O)N/N=C/c3ccc(Br)s3)CC2)cc1 | inconclusive: -17.1% | 

Going on with the list.

SMILES | lipid storage change, negative = inhibition | Potency
O=C(CSc1ccsc1[N+](=O)[O-])Nc1cccc(F)c1 | inconclusive: 2.29% | 
Cc1ccc(C)c(OCCC(=O)OCC(=O)NC2CCCC2)c1 |  | inconclusive: 0.731 µM [activator, full curve, poor fit]
Clc1ccccc1-c1nn2c(-c3ccncc3)nnc2s1 |  | inconclusive: 0.326 µM [activator, partial curve, poor fit]
O=C(NCCc1csc(-c2ccccc2)n1)c1ccc(Br)o1 | inconclusive: 47.6% | 
COc1ccc(CCNCCN2CCOCC2)cc1 | inconclusive: 2.93% | 
C=C(C)Cn1c(=O)c2c(nc3n2CCCN3Cc2ccccc2)n(C)c1=O |  | inconclusive: 0.0046 µM [activator, full curve, poor fit]
CCn1nnc(NC(=O)CSc2ccc(Cl)cc2)n1 | inconclusive: 2.97% | 
Cc1ccc(-c2c[nH]c(=S)n2-c2ccccc2)cc1 | inconclusive: 31.1% | 
O=C(CN1CCN(Cc2ccccc2)CC1)N1CCN(c2ccccc2)CC1 | inactive: 9.16% | 
OCCN1CCN(CCCc2c3c(cc4c2CCC4)CCC3)CC1 | inconclusive: -5.91% | 
CN(Cc1cccc(C(F)(F)F)c1)C(=O)C1CCC(=O)N(CC2CCCCC2)C1 (configuration not stated) |  | inconclusive: 32.6 µM [falling, single point]
COc1ccccc1NC(=O)c1cnc(SCC(=O)NCCc2ccccc2)n(C)c1=O | inconclusive: 50.8% [at 0.0737 µM] | 
OC(COc1ccc(Br)cc1)CN1CCN(c2ccccc2)CC1 (configuration not stated) |  | inconclusive: 0.164 µM [activator, full curve]
CC(C)C(=O)Nc1ccc2c(c1)C(=O)N(CCC(=O)O)C2=O | inconclusive: -3.88% | 
O=C(NC(=S)Nc1cc(-c2nc3ccccc3[nH]2)ccc1Cl)c1ccc2c(c1)OCO2 |  | inconclusive: 0.259 µM [activator, full curve, poor fit]
O=C(/C=C/c1cccs1)NCc1ccc2c(c1)OCO2 |  | inconclusive: 25.9 µM [falling, partial curve, poor fit]
Cc1ccccc1NC(=S)/C(=C(\[O-])c1ccc(C)c([N+](=O)[O-])c1)[n+]1ccccc1 | inconclusive: -2.61% | 
CCOP(=O)(O)c1ccccc1OCCCCCOc1ccccc1P(=O)(O)OCC | inconclusive: 10.5% | 
COc1ccc(C(CC(=O)Nc2ccccc2OC)n2cccc2)cc1 (configuration not stated) | inconclusive: -62% | 
CCSc1nnc(NC(=O)c2csc(C)c2)s1 | inconclusive: -77.8% | 
O=C(CSc1nnc(-c2ccccn2)n1Cc1ccccc1)Nc1ccc2c(c1)OCO2 |  | inconclusive: 1.3 µM [activator, full curve]
O=C(CSc1nnc(-c2ccncc2)n1-c1ccc(Cl)cc1)NCc1cccs1 | inconclusive: -17.1% | 
Cc1cc(C(C)(C)C)c(OC(=O)[C@@H]2OC(c3ccccc3)=C[C@H]2c2ccccc2)c(C(C)(C)C)c1 | inconclusive: -7.91% | 
C/C(=N\Nc1ccccc1Cl)c1ccc(-n2ccnc2)cc1 | inconclusive: -23.8% | 
COc1ccc(-n2c(C)cc(C(=O)CCl)c2C)cc1 | inconclusive: -5.44% | 
